Measurements reported in publication PMC10094709.
These are yes or no findings as the source states them, for the method shown. Binding seen in cells or lysates may run through a third protein. Some entries that bind do so weakly or less than the wild type. For some of these results: Where a sequence is shown, tags or fusion partners need not be part of it.

By UniProt entry, the sequences of proteins in these tests, tags left out.
UniProt O95365: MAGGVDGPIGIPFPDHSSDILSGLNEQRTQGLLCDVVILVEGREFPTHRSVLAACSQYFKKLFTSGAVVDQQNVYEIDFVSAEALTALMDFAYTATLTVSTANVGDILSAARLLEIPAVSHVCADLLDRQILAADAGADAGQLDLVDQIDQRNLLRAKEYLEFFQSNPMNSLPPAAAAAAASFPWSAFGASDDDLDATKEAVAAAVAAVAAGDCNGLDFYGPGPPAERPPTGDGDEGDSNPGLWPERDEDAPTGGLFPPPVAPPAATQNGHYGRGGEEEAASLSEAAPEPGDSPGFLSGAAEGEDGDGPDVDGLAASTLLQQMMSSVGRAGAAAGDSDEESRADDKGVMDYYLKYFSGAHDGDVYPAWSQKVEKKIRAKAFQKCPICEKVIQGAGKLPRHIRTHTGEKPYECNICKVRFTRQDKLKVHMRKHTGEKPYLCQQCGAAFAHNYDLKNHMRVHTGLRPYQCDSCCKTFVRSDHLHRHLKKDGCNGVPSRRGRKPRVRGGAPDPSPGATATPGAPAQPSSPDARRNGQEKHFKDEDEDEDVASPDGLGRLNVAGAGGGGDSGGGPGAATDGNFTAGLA
UniProt O88939: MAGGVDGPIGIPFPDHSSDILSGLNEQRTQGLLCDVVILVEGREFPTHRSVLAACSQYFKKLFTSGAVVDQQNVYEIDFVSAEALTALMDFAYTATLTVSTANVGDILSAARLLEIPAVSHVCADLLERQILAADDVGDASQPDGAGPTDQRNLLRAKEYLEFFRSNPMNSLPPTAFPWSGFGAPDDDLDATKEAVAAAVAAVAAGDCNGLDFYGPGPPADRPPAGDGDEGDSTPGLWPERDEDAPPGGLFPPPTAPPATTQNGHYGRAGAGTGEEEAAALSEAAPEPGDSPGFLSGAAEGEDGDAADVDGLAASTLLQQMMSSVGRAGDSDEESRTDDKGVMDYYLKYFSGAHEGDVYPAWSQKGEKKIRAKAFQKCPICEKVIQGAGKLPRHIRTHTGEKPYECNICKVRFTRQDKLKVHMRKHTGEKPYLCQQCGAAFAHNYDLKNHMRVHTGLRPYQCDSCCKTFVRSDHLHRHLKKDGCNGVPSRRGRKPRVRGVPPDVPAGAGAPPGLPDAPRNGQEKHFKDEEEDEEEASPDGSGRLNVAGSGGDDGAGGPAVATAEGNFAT

Tests used:
[1] = target: T1, V5-tagged human TG2 (transglutaminase 2) (human) (UniProt P21980); experiment: co-IP; HEK293TN cells co-transfected with V5-TG2 and FLAG/Myc-Zbtb7a, lysed after 24 h in IP lysis buffer (150 mM NaCl, 50 mM Tris-HCl, 1 mM EDTA, 1 mM EGTA, 0.5% NP-40 in PBS); 500 ug lysate; IP with rabbit anti-V5 antibody and protein A/G magnetic agarose, 4 C; immunoblot; the reverse IP is in Figure S4
T1 sequence: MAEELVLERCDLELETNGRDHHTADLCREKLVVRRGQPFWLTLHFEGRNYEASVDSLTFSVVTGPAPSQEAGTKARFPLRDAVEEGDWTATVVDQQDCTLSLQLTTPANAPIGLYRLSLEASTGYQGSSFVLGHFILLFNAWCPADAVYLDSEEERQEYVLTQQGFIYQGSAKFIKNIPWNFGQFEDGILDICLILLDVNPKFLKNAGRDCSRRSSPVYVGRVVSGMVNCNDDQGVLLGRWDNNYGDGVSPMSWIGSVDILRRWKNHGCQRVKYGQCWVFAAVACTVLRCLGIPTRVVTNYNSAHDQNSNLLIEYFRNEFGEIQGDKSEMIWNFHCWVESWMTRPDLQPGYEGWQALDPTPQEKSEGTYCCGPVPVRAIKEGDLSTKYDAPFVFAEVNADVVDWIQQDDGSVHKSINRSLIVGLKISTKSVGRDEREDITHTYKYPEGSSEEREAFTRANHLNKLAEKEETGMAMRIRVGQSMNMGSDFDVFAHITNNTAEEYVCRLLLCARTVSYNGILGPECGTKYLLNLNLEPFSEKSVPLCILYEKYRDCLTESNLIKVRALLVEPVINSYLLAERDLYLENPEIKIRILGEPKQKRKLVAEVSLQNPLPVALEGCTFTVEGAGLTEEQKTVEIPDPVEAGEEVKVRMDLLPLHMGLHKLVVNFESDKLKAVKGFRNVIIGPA

[2] = target: T2, endogenous TG2 (transglutaminase 2) of mouse astrocytes (mouse (endogenous in primary astrocytes)) (UniProt P21981); experiment: co-IP; nuclear fractions of WT mouse astrocytes (NE-PER kit), 110 ug nuclear protein; IP with mouse anti-TG2 or hamster anti-Zbtb7a antibody and protein L magnetic agarose, 4 C; IgG control; immunoblot
T2 sequence: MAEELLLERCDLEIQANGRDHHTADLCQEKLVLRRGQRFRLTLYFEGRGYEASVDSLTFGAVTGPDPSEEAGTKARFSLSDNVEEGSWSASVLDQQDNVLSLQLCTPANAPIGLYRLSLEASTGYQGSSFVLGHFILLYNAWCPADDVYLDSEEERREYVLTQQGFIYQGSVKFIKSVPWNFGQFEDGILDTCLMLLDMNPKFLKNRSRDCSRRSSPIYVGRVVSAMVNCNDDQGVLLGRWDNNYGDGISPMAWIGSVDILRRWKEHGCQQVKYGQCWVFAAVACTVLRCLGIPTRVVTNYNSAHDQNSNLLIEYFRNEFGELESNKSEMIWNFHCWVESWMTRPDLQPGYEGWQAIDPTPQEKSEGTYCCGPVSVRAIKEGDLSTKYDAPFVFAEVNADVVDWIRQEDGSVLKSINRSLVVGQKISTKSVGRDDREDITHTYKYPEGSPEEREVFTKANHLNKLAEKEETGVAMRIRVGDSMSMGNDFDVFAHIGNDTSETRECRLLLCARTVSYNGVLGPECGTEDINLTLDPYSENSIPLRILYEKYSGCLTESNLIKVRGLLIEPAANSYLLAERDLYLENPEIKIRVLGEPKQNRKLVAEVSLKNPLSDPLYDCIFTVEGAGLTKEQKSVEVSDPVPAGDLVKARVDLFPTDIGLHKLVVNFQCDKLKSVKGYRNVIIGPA

FLAG/Myc-tagged Zbtb7a = FLAG/Myc-tagged Zbtb7a (UniProt O95365); experiment: co-IP; HEK293TN cells co-transfected with V5-TG2 and FLAG/Myc-Zbtb7a, lysed after 24 h in IP lysis buffer (150 mM NaCl, 50 mM Tris-HCl, 1 mM EDTA, 1 mM EGTA, 0.5% NP-40 in PBS); 500 ug lysate; IP with rabbit anti-V5 antibody and protein A/G magnetic agarose, 4 C; immunoblot; the reverse IP is in Figure S4
[3] = target: endogenous Zbtb7a of mouse astrocytes (mouse (endogenous in primary astrocytes)) (UniProt O88939); experiment: co-IP; nuclear fractions of WT mouse astrocytes (NE-PER kit), 110 ug nuclear protein; IP with mouse anti-TG2 or hamster anti-Zbtb7a antibody and protein L magnetic agarose, 4 C; IgG control; immunoblot

Molecule: FLAG/Myc-tagged Zbtb7a (from UniProt O95365 1-584)
- binding [1]: binds

Molecule: endogenous Zbtb7a of mouse astrocytes (from UniProt O88939 1-569)
- binding [2]: binds

B1: V5-tagged human TG2 (transglutaminase 2) (enzyme, UniProt P21980 1-687)
chain: MAEELVLERCDLELETNGRDHHTADLCREKLVVRRGQPFWLTLHFEGRNYEASVDSLTFSVVTGPAPSQEAGTKARFPLRDAVEEGDWTATVVDQQDCTLSLQLTTPANAPIGLYRLSLEASTGYQGSSFVLGHFILLFNAWCPADAVYLDSEEERQEYVLTQQGFIYQGSAKFIKNIPWNFGQFEDGILDICLILLDVNPKFLKNAGRDCSRRSSPVYVGRVVSGMVNCNDDQGVLLGRWDNNYGDGVSPMSWIGSVDILRRWKNHGCQRVKYGQCWVFAAVACTVLRCLGIPTRVVTNYNSAHDQNSNLLIEYFRNEFGEIQGDKSEMIWNFHCWVESWMTRPDLQPGYEGWQALDPTPQEKSEGTYCCGPVPVRAIKEGDLSTKYDAPFVFAEVNADVVDWIQQDDGSVHKSINRSLIVGLKISTKSVGRDEREDITHTYKYPEGSSEEREAFTRANHLNKLAEKEETGMAMRIRVGQSMNMGSDFDVFAHITNNTAEEYVCRLLLCARTVSYNGILGPECGTKYLLNLNLEPFSEKSVPLCILYEKYRDCLTESNLIKVRALLVEPVINSYLLAERDLYLENPEIKIRILGEPKQKRKLVAEVSLQNPLPVALEGCTFTVEGAGLTEEQKTVEIPDPVEAGEEVKVRMDLLPLHMGLHKLVVNFESDKLKAVKGFRNVIIGPA
- binding (FLAG/Myc-tagged Zbtb7a): binds

B2: endogenous TG2 (transglutaminase 2) of mouse astrocytes (enzyme, UniProt P21981 1-686)
chain: MAEELLLERCDLEIQANGRDHHTADLCQEKLVLRRGQRFRLTLYFEGRGYEASVDSLTFGAVTGPDPSEEAGTKARFSLSDNVEEGSWSASVLDQQDNVLSLQLCTPANAPIGLYRLSLEASTGYQGSSFVLGHFILLYNAWCPADDVYLDSEEERREYVLTQQGFIYQGSVKFIKSVPWNFGQFEDGILDTCLMLLDMNPKFLKNRSRDCSRRSSPIYVGRVVSAMVNCNDDQGVLLGRWDNNYGDGISPMAWIGSVDILRRWKEHGCQQVKYGQCWVFAAVACTVLRCLGIPTRVVTNYNSAHDQNSNLLIEYFRNEFGELESNKSEMIWNFHCWVESWMTRPDLQPGYEGWQAIDPTPQEKSEGTYCCGPVSVRAIKEGDLSTKYDAPFVFAEVNADVVDWIRQEDGSVLKSINRSLVVGQKISTKSVGRDDREDITHTYKYPEGSPEEREVFTKANHLNKLAEKEETGVAMRIRVGDSMSMGNDFDVFAHIGNDTSETRECRLLLCARTVSYNGVLGPECGTEDINLTLDPYSENSIPLRILYEKYSGCLTESNLIKVRGLLIEPAANSYLLAERDLYLENPEIKIRVLGEPKQNRKLVAEVSLKNPLSDPLYDCIFTVEGAGLTKEQKSVEVSDPVPAGDLVKARVDLFPTDIGLHKLVVNFQCDKLKSVKGYRNVIIGPA
- binding [3]: binds
